From publication PMC11165193 come the findings set out here.

Chains of the proteins cited; added tags and fusions are not shown. Lines headed by an entry give the natural chain unless they say otherwise; changes in a name come on top.
UniProt Q8K3Z0: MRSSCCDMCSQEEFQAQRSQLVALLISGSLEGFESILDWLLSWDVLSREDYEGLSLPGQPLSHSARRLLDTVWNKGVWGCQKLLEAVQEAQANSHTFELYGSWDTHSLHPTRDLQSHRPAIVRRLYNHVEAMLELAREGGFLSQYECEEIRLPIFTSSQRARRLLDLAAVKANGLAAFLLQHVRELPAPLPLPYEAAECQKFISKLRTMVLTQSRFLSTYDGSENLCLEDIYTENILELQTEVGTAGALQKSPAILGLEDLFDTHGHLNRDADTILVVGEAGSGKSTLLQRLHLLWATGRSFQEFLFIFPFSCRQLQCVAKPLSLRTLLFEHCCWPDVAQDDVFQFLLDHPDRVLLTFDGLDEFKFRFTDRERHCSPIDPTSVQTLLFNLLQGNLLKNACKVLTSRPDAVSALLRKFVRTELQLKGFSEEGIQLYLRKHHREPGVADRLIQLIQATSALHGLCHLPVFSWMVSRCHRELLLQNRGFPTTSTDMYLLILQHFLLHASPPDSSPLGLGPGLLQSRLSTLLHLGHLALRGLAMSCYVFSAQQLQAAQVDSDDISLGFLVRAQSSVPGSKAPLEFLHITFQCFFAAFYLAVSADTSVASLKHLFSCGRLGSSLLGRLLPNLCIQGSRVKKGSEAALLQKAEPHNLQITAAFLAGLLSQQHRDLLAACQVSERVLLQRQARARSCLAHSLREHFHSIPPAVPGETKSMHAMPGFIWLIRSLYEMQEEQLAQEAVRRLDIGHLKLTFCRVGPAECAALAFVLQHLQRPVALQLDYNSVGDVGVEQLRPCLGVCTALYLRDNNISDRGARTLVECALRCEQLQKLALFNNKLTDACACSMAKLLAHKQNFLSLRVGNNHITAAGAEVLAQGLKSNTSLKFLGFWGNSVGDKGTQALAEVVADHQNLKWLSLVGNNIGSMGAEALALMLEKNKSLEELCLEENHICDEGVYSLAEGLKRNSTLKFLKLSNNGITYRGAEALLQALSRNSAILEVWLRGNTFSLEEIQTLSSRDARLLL

No constants are given. Whether binding was seen depends on the method and setting. Binding seen in cells or lysates may run through a third protein. Here binding means that the protein was enriched with, or labelled near, the bait; the list need not be complete.

To fix the notation:
B1: Uncharacterized protein MPN_491 (protein, UniProt P75295 1-474)
chain: MKLTLWLVLGAVGVGAVGTGVGFGTKYFLDHKAKSNVDVAFKQRSLRKQVNVGFWNALNFLGSERSFGNQNSKVKTKGIAEIINLLKYDIVGLAEIQPSTESTAERFVDQLNEYADPYTSWSYDLSPVTTSKTASEGQKERILIVYNSQSVKMEGQGWFYDNPEMDISNYVSDGSSSKTRTPKKTKTSKKKPIKKKSSKSKSSKGSKKQKTTNESESETLELKLEQRRVTTRSQSKQQKGQEQATDQTDSEGVTTEEGADNTDTELVETTAETTEQEATTKSTKDTKETKDRTKVDWSRPPYSAEFSTQKGKVVVAFGHFDSPGANTKRGEKIAKMGKGQGAHEYFEAQTTFKAMDSIKQHFNNENILFMADTNIKFGNQAAAFGESKDYTFLTEDNEAWKSSLGTKSGYANPYDKIITSNSFKNKVLDQAETYWNYFDRYLKTKGHNSYLFDLASWGTKPRTISDHAPVGVLF
B2: Dihydrolipoyl dehydrogenase (protein, UniProt P75393 1-457)
chain: MNYDLIIIGAGPAGYVAAEYAGKHKLKTLVVEKEYFGGVCLNVGCIPTKTLLKRAKIVDYLRHAQDYGISINGQVALNWNQLLEQKGKVVSKLVGGVKAIIASAKAETVMGEAKVLDPNTVEVAGKTYTTKSIVVATGSRPRYLTLPGFAEARQNGFVIDSTQALSLEGVPRKLVVVGGGVIGIEFAFLYASLGSEVTILQGVDRILEIFDTEVSDLVAKLLQTKNVKIITNAQVTRANNNEVFYSQNGQEGSVVGDRILVSIGRIPNTECLDGLNLQRDERNRIVLNQDLQTSIPNIYIVGDANAQLMLAHFAYQQGRYAVNHILNKKQVKPAQKLTCPSCIYTNPEVASVGYTEMELKKQGIPYVKTNLVLAHCGKAIADNETNGFVKMMFDPQTGKILGCCIIAATASDMIAELALAMGAGLTVFDIANSISPHPTINEMIADVCKKALFDHFK
B3: Pyruvate dehydrogenase E1 component, beta subunit (protein, UniProt P75391 1-327)
chain: MSKTIQANNIEALGNAMDLALERDPNVVLYGQDAGFEGGVFRATKGLQKKYGEERVWDCPIAEAAMAGIGVGAAIGGLKPIVEIQFSGFSFPAMFQIFTHAARIRNRSRGVYTCPIIVRMPMGGGIKALEHHSETLEAIYGQIAGLKTVMPSNPYDTKGLFLAAVESPDPVVFFEPKKLYRAFRQEIPADYYTVPIGQANLISQGNNLTIVSYGPTMFDLINMVYGGELKDKGIELIDLRTISPWDKETVFNSVKKTGRLLVVTEAAKTFTTSGEIIASVTEELFSYLKAAPQRVTGWDIVVPLARGEHYQFNLNARILEAVNQLLK
B4: 30S ribosomal protein S17 (protein, UniProt Q50309 1-85)
chain: MKRNQRKVLIGIVKSTKNAKTATVQVESRFKHPLYHKSVVRHKKYQAHNEGEVLAKDGDKVQIVETRPLSATKRFRIAKIIERAK
B5: Pyruvate dehydrogenase E1 component subunit alpha (protein, UniProt P75390 1-358)
chain: MAILIKNKVPTTLYQVYDNEGKLMDPNHKITLSNEQLKHAFYLMNLSRIMDKKMLVWQRAGKMLNFAPNLGEEALQVGMGMGLNENDWFCPTFRSGALMLYRGVKPEQLLLYWNGNENGSKIEAKYKTLPINITIGAQYSHAAGLGYMLHYKKLPNVAVTMIGDGGTAEGEFYEAMNIASIHKWNSVFCINNNQFAISTRTKLESAVSDLSTKAIAVNIPRIRVDGNDLIASYEAMHEAANYARSGNGPVLIEFFSWRQGPHTTSDDPSIYRTKEEEAEAMKSDPVKRLRNFLFDRGILTPQQEEEMVAKIEQEVQAAYEVMVSKTPVTLDEVFDYNYEKLTPDLARQKAEAKKYFKD
B6: 30S ribosomal protein S5 (protein, UniProt Q50301 1-219)
chain: MTDQNQKANQGNGLQTTNLQAHAQRKHNLRPSSEGIKKAVSKKEGGGHNRNNQNRRFQKPAFKSEFEERIVKLKRISKTTKGGRNMRFSVLVVVGNRKGKIGYGIAKALEVPNAIKKAIKAAHNSLHTIEIHKGSIYHEVIGRSGASRVLLKPAPQGTGIIAGGAIRAIIELAGYSDIYTKNLGRNTPINMIHATMDGILKQLSPRRVAILRNKNLNEL
B7: Fructose-bisphosphate aldolase (protein, UniProt P75089 1-288)
chain: MLVNIKQMLQHAKQHHYAVPHININNYEWAKAVLTAAQQAKSPIIVSTSEGALKYISGHQVVVPMVKGLVDALKITVPVALHLDHGSYEGCKAALQAGFSSIMFDGSHLPFQENFTKSKELIELAKQTNASVELEVGTLGGEEDGIVGQGELANIEECKQIATLKPDALAAGIGNIHGLYPDNWKGLNYELIEAIAKATNLPLVLHGGSGIPEADVKKAIGLGISKLNINTECQLAFAKAIREYVEAKKDLDTHNKGYDPRKLLKSPTQAIVDCCLEKMQLCGSTNKA

The target of the assay is GST-tagged NOD2 LRR domain (mouse) (UniProt Q8K3Z0). Briefly: affinity purification with mass spectrometry; purified GST-LRR on glutathione-Sepharose resin (magnetic beads in the results); M. pneumoniae whole cell lysate, overnight at 4 °C; washed three times with Tris-NaCl buffer; eluate by silver staining and LC-MS/MS; GST as control; only the target purified.
With B1, the binding result was “binds”.
On to B2, for which the binding result is given as “binds”.
B3: the binding result is “binds”.
Regarding B4, the binding result is “binds”.
As to B5, the binding result was “binds”.
Consider B6, for which the binding entry is reported as “binds”.
As to B7, the binding result is “binds”.
